In PubChem BioAssay AID2685 (National Center for Advancing Translational Sciences (NCATS), 2010) one finds cell number change and AC50 data, which are given here for 56 compounds.

Structures are written as SMILES. The list shows a part of the results. The main result of the screen is listed elsewhere. These columns were measured beside it and carry no call. Compounds called inactive in the main read-out are mostly missing here. The note in brackets gives the kind of curve behind each potency; many fits are weak.

This assay in a line: qHTS Assay for Lipid Storage Modulators in Drosophila S3 Cells.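 For cell number change: cells counted by Cell Tracker Red CMTPX staining in the red channel.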 The settings on record: BODIPY lipid droplet fluorescence, 18-24 h; for cell number change: measured here: cell count max response, cells fed with added oleic acid. The gist of the method: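 Drosophila S3 cells loaded with oleic acid (400 uM, as added) and compounds at several concentrations; lipid droplets imaged by 488-nm laser-scanning cytometry, 500–530 nm intensity and object ratio to cell channel. Percent activity normalized to 20 uM Triacsin C.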
For orientation: Quantitative high-throughput screening tests each substance at several concentrations.

Where [1] appears, read: measured here: cell number channel AC50, cells fed with added oleic acid.
The mark [2] stands for this setting: measured here: lipid fluorescence (Fed channel) AC50, cells fed with added oleic acid.

For `CN(C(=O)c1ccc(-c2nn(C)c(=O)c3ccccc23)cc1)c1ccccc1`, the cell number change is 45.3%. Besides, under setting [1], the AC50 (usually the midpoint of the concentration-response curve, whichever way the signal moves) is 580 nM [rising, full curve]. Besides, under setting [2], the half-maximal activity concentration (AC50) is 2310 nM [rising, partial curve].

Turning to `O=C(CSc1nncn1-c1ccccc1)Nc1ccc(N2CCOCC2)cc1`, the cell number change is -14.3%. For the same compound, the concentration at half-maximal activity (AC50) under setting [1] was 1300 nM [rising, full curve, poor fit].

For the compound `COc1ccc(CNc2nc3nc4c(c(=O)n3[nH]2)CCC4)cc1`, the cell number change amounted to 35.9%. For the same compound, the AC50 under setting [1] was 16400 nM [rising, single point].

With `CC(C(=O)c1ccc(Br)cc1)[n+]1cccc(NC(=O)c2ccccc2)c1` (stereo not given), the cell number change is -60.1%. Moreover, under setting [1], the AC50 was 3660 nM [rising, partial curve]. For the same compound, the concentration at half-maximal activity (AC50) under setting [2] is 2910 nM [rising, partial curve].

`CNc1oc(Cc2ccccc2)nc1S(=O)(=O)c1ccccc1`: the cell number change stood at 2.25%.

Turning to `O=C(CC1SCCNC1=O)Nc1cccc(C(F)(F)F)c1` (stereo not given), the cell number change came out at 1.36%.

As for `Cc1ccc(N2CCN(/N=C/c3cccnc3)CC2)cc1`, the cell number change is 59.9%. The AC50 under setting [1] was 14600 nM [rising, single point].

With `CCCCc1ccc(NC2=NCC(=O)N2CCc2ccccc2)cc1`, the cell number change is 18.8%. Further, the concentration at half-maximal activity (AC50) under setting [2] is 103 nM [rising, full curve].

As for `CCN(Cc1ccccc1)c1ccc(/C=N/NS(=O)(=O)c2cccc([N+](=O)[O-])c2)cc1`, the cell number change was -23.3%. Besides, the AC50 under setting [1] is 4.11 nM [falling, full curve, poor fit]. For the same compound, under setting [2], the AC50 is 6.51 nM [falling, full curve, poor fit].

In the case of `O=P(CCO)(c1ccccc1)c1ccccc1`, the cell number change was 0.735%.

For `COc1ccccc1NC(=O)N1CCCC(c2nc3c(nnn3Cc3ccc(C)cc3)c(=O)[nH]2)C1` (stereo not given), the cell number change is -31.5%. The half-maximal activity concentration (AC50) under setting [1] was 11600 nM [falling, partial curve]. For the same compound, the AC50 under setting [2] is 5.8 nM [rising, full curve, poor fit].

Turning to `Cc1ccc(C)c(CNS(=O)(=O)c2ccc3c(c2)C(C)(C)C(=O)N3C)c1`, the cell number change was -34.6%. Also, the AC50 under setting [1] is 10300 nM [falling, partial curve, poor fit].

For the compound `O=C(NC12CC3CC(CC(C3)C1)C2)c1cc(F)c(F)c(F)c1F`, the cell number change is 51.4%. Under setting [1], the concentration at half-maximal activity (AC50) is 29100 nM [rising, single point]. Further, the AC50 under setting [2] is 29100 nM [rising, single point].

For the compound `CCOC(=O)c1c(NC(=O)/C=C/c2ccc(C)o2)sc(C)c1C`, the cell number change is -12.6%. The AC50 under setting [2] was 259 nM [rising, full curve, poor fit].

With `CC(=O)Oc1ccc(C(=O)N2c3ccccc3NC(=O)C2C)cc1` (stereo not given), the cell number change came to 38.7%. The concentration at half-maximal activity (AC50) under setting [1] is 29100 nM [rising, single point].

With `N=c1c2ccccc2nnn1-c1cccc(C(F)(F)F)c1`, the cell number change is -32.8%. In addition, under setting [1], the concentration at half-maximal activity (AC50) is 6510 nM [falling, single point]. In addition, the half-maximal activity concentration (AC50) under setting [2] was 6510 nM [falling, single point].

On to `CN(C)S(=O)(=O)c1ccc(N2CCOCC2)c(C(=O)NCc2ccc3c(c2)OCO3)c1`, for which the cell number change amounted to 2.57%. Also, the AC50 under setting [2] is 25900 nM [rising, partial curve].

In the case of `CCOc1ccc(C(=O)OCCN(CC)CC)cc1`, the cell number change is -53.1%. Besides, under setting [1], the AC50 is 164 nM [falling, full curve]. The AC50 under setting [2] is 517 nM [falling, full curve].

`CN(C)S(=O)(=O)c1ccc2c(c1)nc(CCC(=O)Nc1ccc(N3CCOCC3)cc1)n2C`: the cell number change was -2.77%. Further, the AC50 under setting [1] was 116 nM [falling, full curve]. Under setting [2], the half-maximal activity concentration (AC50) is 103 nM [falling, full curve, poor fit].

With `CCCOC(=O)C1=C(C)NC2=C(C(=O)C(C(=O)OC)C(C)C2)C1c1ccc(N(CC)CC)cc1` (stereo not given), the cell number change is -26.8%. Also, the AC50 under setting [2] was 164 nM [falling, partial curve, poor fit].

With `CC(NC(=O)C1CCCN1S(=O)(=O)c1cccc2nsnc12)c1ccccc1` (stereo not given), the cell number change stood at 26.8%. For the same compound, the concentration at half-maximal activity (AC50) under setting [2] is 6510 nM [falling, single point].

Take `C=CCN1C(=O)c2ccc(C(=O)NCCc3ccc(OC)c(OC)c3)cc2C1=O`: the cell number change stood at 30.2%. Moreover, the AC50 under setting [1] is 1840 nM [rising, single point].

Take `CCOC(=O)N1CCC(NC(=O)Cn2cc3c(n2)CCCC3)CC1`: the cell number change is -40.1%. Also, under setting [1], the AC50 was 6510 nM [falling, partial curve, poor fit]. Also, the AC50 under setting [2] is 2910 nM [falling, full curve].

Consider `CCOC(=O)c1c(-c2ccccc2)c2cc(OC)ccc2n1CCCN(C)C`, for which the cell number change is 3.37%. In addition, the half-maximal activity concentration (AC50) under setting [2] was 3260 nM [rising, partial curve].

Take `COC(=O)c1cc(C(=O)OC)cc(S(=O)(=O)Nc2ccc(Cl)c(N)c2)c1`: the cell number change is -35.2%. In addition, the concentration at half-maximal activity (AC50) under setting [1] was 1160 nM [falling, full curve, poor fit].

For `CCOC(=O)c1c(-c2ccc(OC)cc2)cn2ccccc12`, the cell number change stood at 0.469%. In addition, the AC50 under setting [2] is 116 nM [rising, full curve, poor fit].

Take `NC1=NC(c2ccc(Cl)cc2)n2c(nc3ccccc32)N1` (stereo not given): the cell number change is -72%. The AC50 under setting [1] was 23100 nM [falling, partial curve].

`Cc1c(NC(=O)C(C)OC(=O)c2ccc(Br)o2)c(=O)n(-c2ccccc2)n1C` (stereo not given): the cell number change is -5.62%. The AC50 under setting [1] is 580 nM [rising, single point].

Consider `COc1cc(C=O)c(Cl)cc1OCC(N)=O`, for which the cell number change was -44%. For the same compound, the AC50 under setting [2] was 6510 nM [falling, single point].

Regarding `CCN(CC)CCOC(=O)C1c2ccccc2Oc2ccccc21`, the cell number change was -1.76%. Moreover, the concentration at half-maximal activity (AC50) under setting [1] is 1460 nM [rising, single point]. Besides, the half-maximal activity concentration (AC50) under setting [2] was 2310 nM [rising, partial curve, poor fit].

As to `Cn1ncc(Br)c1C(=O)N1CCc2ccccc21`, the AC50 by setting is: under setting [1], 4110 nM [falling, single point]; under setting [2], 2310 nM [falling, partial curve].

With `COc1ccc(NS(=O)(=O)c2ccc(Cl)s2)cn1`, the cell number change was -13.7%. Under setting [2], the half-maximal activity concentration (AC50) was 4110 nM [falling, full curve, poor fit].

For the compound `O=C(CSC1=NCCS1)NC(NC(=O)CSC1=NCCS1)c1ccccc1`, the AC50 under setting [2] was 116 nM [falling, full curve, poor fit].

In the case of `CCCCCn1c(=O)[nH]c2cc(C(=O)NCCCN3CCCCC3CC)ccc2c1=O` (stereo not given), the cell number change was found to be 11.3%. Besides, the half-maximal activity concentration (AC50) under setting [2] is 29100 nM [rising, single point].

In the case of `CN(C)c1ccc(CN(CC2CCCO2)C(=O)c2cccs2)cc1` (stereo not given), the cell number change is -36.6%. Also, the AC50 under setting [1] was 25900 nM [falling, partial curve].

With `Cc1ccc(C(=O)NCCN2CCOCC2)cc1Cl`, the cell number change is 2.01%. For the same compound, the AC50 under setting [2] is 366 nM [rising, full curve].

For `Cc1ccc2c(c1)cc1c(=O)n(CC(=O)N(C)c3ccccc3)nc(C)n12`, the cell number change was 23.1%. For the same compound, the AC50 under setting [2] is 6510 nM [rising, single point].

As for `C(=N\Nc1nc2ccccc2s1)/c1ccccn1`, the cell number change is -27.9%. Further, the concentration at half-maximal activity (AC50) under setting [2] is 32600 nM [falling, single point].

In the case of `O=C(NN1CCOCC1)c1ccccc1F`, the cell number change is 19.2%.

For the compound `O=S(=O)(c1ccc(NC(=S)NN=C(C2CC2)C2CC2)cc1)N1CCOCC1`, the cell number change amounted to 34.6%. For the same compound, the half-maximal activity concentration (AC50) under setting [1] is 58 nM [rising, full curve, poor fit]. For the same compound, the AC50 under setting [2] was 29100 nM [rising, partial curve, poor fit].

Take `Cc1c(-c2ccccc2Cl)nc2ccccc2c1C(=O)O`: the cell number change is 1.98%. Further, the concentration at half-maximal activity (AC50) under setting [1] is 731 nM [rising, full curve]. For the same compound, the concentration at half-maximal activity (AC50) under setting [2] was 116 nM [rising, full curve, poor fit].

`COc1cccc(NC(=O)CNC(=O)Cn2cnc3sc4c(c3c2=O)CCCC4)c1`: the cell number change was 18.1%.

For `Cn1cc(C(=O)c2ccc(Cl)cc2)cc1-c1nc2ccccc2n1C`, the cell number change was -5.52%. In addition, the AC50 under setting [2] was 4.61 nM [rising, full curve, poor fit].

On to `CCc1ccc(NC(=O)COC(=O)CCC2CCCC2)cc1`, for which the cell number change is -7.63%. In addition, under setting [2], the half-maximal activity concentration (AC50) was 8200 nM [falling, partial curve, poor fit].

With `COC(=O)c1cccc([N+](=O)[O-])c1CN1CCCC(C(N)=O)C1` (stereo not given), the cell number change stood at 11%. Further, the AC50 under setting [2] was 731 nM [rising, single point].

As for `COc1ccc(N(C(=O)c2ccncc2)S(=O)(=O)c2ccc(F)cc2)cc1`, the cell number change came out at 41.9%. Further, the AC50 under setting [1] is 29100 nM [rising, single point]. Further, the AC50 under setting [2] is 23100 nM [rising, partial curve].

Turning to `NC(=O)c1cc(-c2ccccc2)nc(Oc2ccccc2)n1`, the cell number change was 40.3%. Further, the AC50 under setting [1] was 7310 nM [rising, single point].

For `Cn1c(=O)[nH]c(=O)c2c1nc(NC1CCCCC1)n2Cc1ccccc1`, the cell number change turned out to be 28%. The AC50 under setting [1] is 2060 nM [rising, full curve, poor fit]. Moreover, the AC50 under setting [2] was 2910 nM [rising, full curve].

`CSCCC(NS(=O)(=O)c1ccccc1)C(=O)OCc1cc(=O)oc2cc(O)ccc12` (stereo not given): the AC50 is 580 nM [falling, single point] under setting [1] and 146 nM [falling, full curve, poor fit] under setting [2].

Regarding `CCn1c(CNC(=O)c2ccccc2Cl)cc2ccccc21`, the cell number change is 47%. The AC50 under setting [1] was 29.1 nM [rising, full curve, poor fit].

Regarding `Cc1ccc(NC(=O)c2cc3ccccc3o2)cc1Cl`, the cell number change is -21.7%. In addition, the concentration at half-maximal activity (AC50) under setting [2] is 5.17 nM [falling, full curve, poor fit].

For `Cc1cc(=O)n(CCCO)c(O)c1C#N`, the cell number change is -27.4%. The AC50 under setting [2] is 920 nM [falling, full curve].

Turning to `NC(=O)c1ccc(-c2nnn(CC(=O)N(C3CCCCC3)C3CCS(=O)(=O)C3)n2)cc1` (stereo not given), the cell number change is -0.501%. For the same compound, under setting [2], the AC50 is 29100 nM [rising, single point].

For the compound `CCN1C(=O)C(C(=O)c2ccccc2)SC1=S` (stereo not given), the cell number change is -15.2%. Moreover, the AC50 under setting [2] is 580 nM [rising, partial curve, poor fit].

Turning to `Cc1cc(/C=C2\C(=O)NN(c3ccccc3)C2=O)c(C)n1-c1ccccc1O`, the cell number change was -20.9%.

For `O=C(C/C(=N/O)c1ccccc1O)C(F)F`, the cell number change is -40%. Under setting [1], the AC50 is 29100 nM [falling, single point]. Also, the half-maximal activity concentration (AC50) under setting [2] was 14600 nM [falling, partial curve].
